All values are in %.
How 0% and 100% were set is not recorded. Most values in the screen are low, and negative values occur.
The compounds are a random part of those screened.
A dash means the value is not listed here; it may have been measured.

Sequences of proteins named here, by UniProt entry; tags and fusion partners are left off.
UniProt E9BF75, entry or part of it: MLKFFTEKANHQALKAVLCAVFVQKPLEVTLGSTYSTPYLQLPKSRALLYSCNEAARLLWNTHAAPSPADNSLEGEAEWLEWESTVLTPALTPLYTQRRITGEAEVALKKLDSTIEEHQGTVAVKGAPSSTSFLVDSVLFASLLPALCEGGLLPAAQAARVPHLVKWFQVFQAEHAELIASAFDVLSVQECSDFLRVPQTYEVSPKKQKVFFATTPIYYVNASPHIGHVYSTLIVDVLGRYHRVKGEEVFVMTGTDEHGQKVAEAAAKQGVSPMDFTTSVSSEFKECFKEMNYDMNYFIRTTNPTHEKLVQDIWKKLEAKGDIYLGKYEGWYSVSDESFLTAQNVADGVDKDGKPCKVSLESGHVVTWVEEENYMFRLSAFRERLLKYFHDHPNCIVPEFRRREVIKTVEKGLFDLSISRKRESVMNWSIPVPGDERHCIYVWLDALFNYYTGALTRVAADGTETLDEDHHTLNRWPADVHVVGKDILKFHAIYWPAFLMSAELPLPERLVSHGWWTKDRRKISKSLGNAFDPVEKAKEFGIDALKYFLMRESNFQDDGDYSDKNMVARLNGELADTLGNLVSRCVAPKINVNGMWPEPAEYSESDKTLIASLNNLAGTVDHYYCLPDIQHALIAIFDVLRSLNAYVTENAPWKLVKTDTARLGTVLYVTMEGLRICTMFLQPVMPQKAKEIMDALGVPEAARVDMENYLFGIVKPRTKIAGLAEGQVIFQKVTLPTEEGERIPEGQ

A: 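Assay on Mycobacterium tuberculosis, filed only as a heat shock assay from Cornell; the read-out is not stated. The concentration is filed as 10 mM, unlikely as a test dose, so the dose is not known. The record gives no direction; compounds that gave an IC50 in retests scored well above the rest, so higher reads as stronger inhibition. Of about 69,000 compounds tested this way, about 930 (1.4%) reached 50% or more in at least one test.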
B: 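Whole-cell assay for inhibitors of Mycobacterium tuberculosis growth, labelled Cornell in the record; the read-out is not stated. The concentration is filed as 10 mM, unlikely as a test dose, so the dose is not known. Higher means stronger inhibition (inferred from two other growth screens of the library). Of about 53,000 compounds tested this way, about 900 (1.7%) reached 50% or more in at least one test.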
C: 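Methionyl-tRNA synthetase (putative), Leishmania donovani (UniProt E9BF75). Primary screen of methionyl-tRNA synthetase; the read-out is not stated. The test concentration is not given. The values are filed as inhibition. About 68,000 compounds were tested under these conditions; 0.035% (about 24) showed 50% or more at least once.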

With CNc1cc(C2CN(Cc3coc(C)n3)CCO2)nc(C)n1 (stereo unspecified) the screen gave A: -7.598%; B: -2.378%; C: 17.42%. With Cc1ccc(OCCCSC2=NCCN2)cc1 the screen gave C: -3.2%. Result for CN(C)c1cccc(C(=O)NCC2(O)CCOCC2)c1 was A: -4.602%; B: 23.41%; C: 12.5%. CCCNC(=O)C1CCN(CC(O)c2ccc(C(F)(F)F)cc2)CC1 (stereo unspecified) read A: 3.638%; B: 2.38%; C: 17.01%. Result for CCN1CCN(CCNC(=O)c2ccn(-c3ccc(F)cc3)n2)CC1 was A: 3.145%; C: 18.1%. CC(C)(C)OC(=O)N1CCN(C(=O)c2cnn3c2OCCC3)CC1 read A: 12.11%; B: 7.034%; C: 9.014%. For Cc1ccc(C(=O)NCC2CCN(Cc3ccccc3C#N)C2)cn1 (stereo unspecified) the result was A: -14.76%; B: 17.89%; C: 21.04%.

With CCOCCCC(=O)Nc1ccc(OCc2noc(C3CC3)n2)cc1 the screen gave A: -22.51%; B: -8.403%; C: 9.89%. Result for O=C(O)c1ccccc1-n1cnc(CN2CCCc3ccccc32)c1 was A: -8.767%; B: 23.8%; C: 15.43%. Result for Cc1nnc(C(C)N2CCc3[nH]c4ccc(Cl)cc4c3C2)o1 (stereo unspecified) was A: -5.458%; B: 34.8%; C: 21.5%. Result for Cc1noc(NCc2cn(C)nc2-c2cccnc2)n1 was A: 2.643%; B: 16.55%; C: 16.49%. c1cc(-c2n[nH]cc2-c2ccnc(N3CCCC3)n2)ccn1 read A: 10.28%; B: 22.12%; C: 12.38%. For Nc1cc(C(=O)N2CCCC3(C=Cc4ccccc4O3)CC2)ccn1 (stereo unspecified) the result was A: 16.22%; B: 13.65%; C: 6.747%. CC(C)(C)c1cc(NC(=O)C2CCCO2)n(-c2ccccn2)n1 (stereo unspecified) gave A: 6.432%; C: 15.38%.

Cc1cc(=O)[nH]c(=O)n1COCc1ccccc1 gave A: 4.908%; B: 37.06%; C: 11.78%. For O=C(O)C(F)(F)F.[H][C@@]12OCCC[C@]1([H])N(C(=O)COC)C[C@H]2OCc1ccncc1 the result was A: -15.14%; B: -1.413%. O=C(CCc1ccccc1Br)N1CC(S(=O)(=O)C2CCCCC2)C1 gave A: -9.275%; B: 20.9%; C: 8.633%. Result for CCc1cnc(N2C[C@@H]3[C@@H](C(=O)NCC(C)C)CCS(=O)(=O)[C@@H]3C2)nc1 was C: 10.96%. Result for CN(C)C[C@]12COC[C@H]1CN(Cc1ccc3ccccc3n1)C2 was C: 11.68%. Cc1cc(OC(F)F)c(C(=O)N2CCC(CN(C)C)CC2)s1 gave A: -9.219%; B: 35.05%; C: 17.16%. For Cc1cc(CN(Cc2cccs2)CC2CCCO2)no1 (stereo unspecified) the result was A: 11.86%; C: 11.11%.

With CCN1CCCN(S(=O)(=O)c2cnc3onc(C)c3c2)CC1 the screen gave A: 6.506%; B: 44.95%; C: 18.77%. CNC(=O)c1ccc(CN(C(=O)c2scnc2C)C2CC2)cc1 read A: -20.11%; B: -26.21%; C: 0%.

Some entries from above, unchanged:

| structure | A | B | C |
|---|---|---|---|
| `Nc1cc(C(=O)N2CCCC3(C=Cc4ccccc4O3)CC2)ccn1` (stereo unspecified) | 16.22 | 13.65 | 6.747 |
| `Cc1cc(CN(Cc2cccs2)CC2CCCO2)no1` (stereo unspecified) | 11.86 | - | 11.11 |
| `CC(C)(C)OC(=O)N1CCN(C(=O)c2cnn3c2OCCC3)CC1` | 12.11 | 7.034 | 9.014 |

The values are deposited in ChEMBL (CHEMBL3988442, “University of Dundee, Small-Polar-MMV Screening Library” (2021)).